What all share (assay): cryo-EM structure
Assay [1] has as its target T1, uL16 P-site loop mutant (uL16^mut), C-terminally Flag-tagged (yeast (S. cerevisiae)) (UniProt P41805).
T1 sequence: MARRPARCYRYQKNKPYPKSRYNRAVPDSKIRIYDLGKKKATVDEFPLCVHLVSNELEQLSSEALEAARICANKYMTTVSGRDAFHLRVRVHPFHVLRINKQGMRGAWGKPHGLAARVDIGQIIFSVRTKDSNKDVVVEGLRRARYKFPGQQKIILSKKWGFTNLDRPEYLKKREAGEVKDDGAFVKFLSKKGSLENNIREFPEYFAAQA

Chains of the proteins cited; added tags and fusions are not shown. Lines headed by an entry give the natural chain unless they say otherwise; changes in a name come on top.
UniProt Q12522: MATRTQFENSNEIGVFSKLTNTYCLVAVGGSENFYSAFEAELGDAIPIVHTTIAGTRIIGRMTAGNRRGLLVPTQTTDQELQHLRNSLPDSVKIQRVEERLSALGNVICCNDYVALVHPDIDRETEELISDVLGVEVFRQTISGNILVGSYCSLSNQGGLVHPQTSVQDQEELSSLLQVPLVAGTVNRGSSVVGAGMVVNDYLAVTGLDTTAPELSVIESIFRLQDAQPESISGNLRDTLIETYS
UniProt P0CX82: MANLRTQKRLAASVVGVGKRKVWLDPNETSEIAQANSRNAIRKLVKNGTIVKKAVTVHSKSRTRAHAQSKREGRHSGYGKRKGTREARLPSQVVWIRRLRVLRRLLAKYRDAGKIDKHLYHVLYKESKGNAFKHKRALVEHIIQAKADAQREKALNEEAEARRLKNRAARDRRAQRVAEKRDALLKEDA
UniProt P04456: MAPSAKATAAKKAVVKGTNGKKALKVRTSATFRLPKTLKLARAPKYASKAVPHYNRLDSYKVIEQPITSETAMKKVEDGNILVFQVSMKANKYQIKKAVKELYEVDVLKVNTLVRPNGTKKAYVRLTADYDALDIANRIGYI

For assay [2], the target named is Tif6-V192F (S. cerevisiae (bypass strain)) (UniProt Q12522).
The target in assay [3] is eL19 (S. cerevisiae (endogenous in BY4741-derived yeast)) (UniProt P0CX82).
In assay [4] the target is T1, uL16 P-site loop mutant (uL16^mut), C-terminally Flag-tagged (yeast (S. cerevisiae)). This is another data set of the same source.
In assay [5] the target is uL23 (S. cerevisiae (endogenous in BY4741-derived yeast)) (UniProt P04456).

Where a chain is given by its changes, count along the chain named. Names and notes keep the numbering of the source. Where two headings read alike, the source gives them in different places. These are yes or no findings as the source states them, for the method shown. Some entries that bind do so weakly or less than the wild type. For some of these results: Where a sequence is shown, tags or fusion partners need not be part of it.

With Tif6 (from UniProt Q12522 1-245), the binding entry in assay [1] is “binds”.

Regarding Tif6-V192F (from UniProt Q12522 1-245), the binding entry in assay [1] is “binds”.

B1: Reh1 (protein, UniProt Q06709 1-432)
chain: MSSTFFTCNCCVIQFKTSDLQRYHMKTEWHRYNLKRRIANLPPIGAEQFAEKLQISEKEQAENQVDEFGFPVLKPVMNQSNALPQKQKKPIKSKRGRKVGTNLLKRKDRDIAKEKQNRSVSPSGSISSQLSNLTVGTENTNTDYGEDTVSEYGFTSDSNYEYATSDEELDIADKPSDKENEKITITECIYCGKDNKEVERNVKHMFSEHGLFIPERSYLIDLNGLLEFLIKMIVIDHNCLCCNFHGSGLESIRAHMASKRHCRLPYETKEERQLFAPFYDFTYDDHSISKNLQNDRAITSKLSSVYGAKNDEEDGEVDITLVSSENDINANYTTVSIDESGLELTLPTGARLGHRAGQRYYRQNLPSQPNPNESRRTITAADRRMVSGVTEKQYKKGMKKMQQLEKNAINTQIRREIKRVNFQTHYRDELLQ
As to B1, the binding entry in assay [1], in assay [2], in assay [3], in assay [4] and in assay [5] was “binds” in each case.

B2: Nmd3-Y379D (protein, UniProt P38861 1-518)
chain: MEFTPIDPHQHQNAATLLCCNCGTPIDGSTGLVMCYDCIKLTVDITQGIPREANISFCRNCERFLQPPGQWIRAELESRELLAICLRRLKGLTKVRLVDASFIWTEPHSRRIRIKLTVQGEAMTNTIIQQTFEVEYIVIAMQCPDCARSYTTNTWRATVQIRQKVPHKRTFLFLEQLILKHNAHVDTISISEAKDGLDFFYAQKNHAVKMIDFLNAVVPIKHKKSEELISQDTHTGASTYKFSYSVEIVPICKDDLVVLPKKLAKSMGNISQFVLCSKISNTVQFMDPTTLQTADLSPSVYWRAPFNALADVTQLVEFIVLDVDSTGISRGNRVLADITVARTSDLGVNDQVYYVRSHLGGICHAGDSVMGYFIANSNDNSDLFDGLNIDYVPDVVLVKKLYQRKSKKSRHWKLKRMAKEHKDIDASLDYNSRAQKQEMERAEKDYELFLQELEEDAELRQSVNLYKNREANVPPEEHEMDEDEDEDAPQINIDELLDELDEMTLEDGVENTPVESQQ
Consider B2, for which the binding result in assay [1] is listed as “binds”.

B3: Nmd3 (protein, UniProt P38861 1-518)
chain: B2 chain with D379Y
Turning to B3, the binding result in assay [4] is “binds”.

B4: Yvh1 (protein, UniProt Q02256 1-364)
chain: MAGNANSVDEEVTRILGGIYLGGIRPIIDHRPLGAEFNITHILSVIKFQVIPEYLIRKGYTLKNIPIDDDDVTDVLQYFDETNRFIDQCLFPNEVEYSPRLVDFKKKPQRGAVFAHCQAGLSRSVTFIVAYLMYRYGLSLSMAMHAVKRKKPSVEPNENFMEQLHLFEKMGGDFVDFDNPAYKQWKLKQSIKLDPSGSELVSNSGMFKDSESSQDLDKLTEAEKSKVTAVRCKKCRTKLALSTSFIAHDPPSKESSEGHFIKRAANSHRIIDIQESQANCSHFFIEPLKWMQPELQGKQELEGKFSCPGCSSKVGGYNWKGSRCSCGKWVIPAIHLQTSKVDQFPLQSTALPNMVNFESEKVNR
Regarding B4, in assay [4], the binding entry is listed as “binds”.

Values taken from article doi:10.1101/2025.10.29.685433.
